Measurements from patent CN114891108A.
Results are given in words; binding and its absence hold for the method and conditions named. Some results given as binding are weak or reduced against the parent protein; the word gives no strength.

By UniProt entry, the sequences of proteins in these tests, tags left out. Residues count along the entry.
UniProt Q02223, residues 1-54: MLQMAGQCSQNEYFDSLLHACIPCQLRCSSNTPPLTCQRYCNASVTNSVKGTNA

Biological target: BCMA抗原(Acro，CD5-H52H5) (UniProt Q02223)
Assay: BLI (Octet), IgG on sensor, BCMA antigen 100 to 1.563 nM

binding: binds
B1: mAb 41 (Fc fusion, not shown: a dimerising Fc or GST)
chain: QSVLTQPPSVSGAPGQTVTISCTGSSSNIGAGYIVNWYQQLPGTAPKLLIYFTGNRPSGVPGRFSGSRSGTSASLAITRLQAEDEADYYCQSFDRSLGGYVFGTATKVTVLGSRGGGGSGGGGSGGGGSLEMAQLQLQESGPGLVKPSETLSLTCTVSGGSISSSSYYWGWIRQPPGKGLEWIGSISYSGSTYYNPSLKSRVTISVDTSKNQFSLKLSSVTAADTAVYYCARDRGDTILDVWGQGTMVTVSS
